{
  "source": "PubChem BioAssay AID1259415",
  "about": "(National Center for Advancing Translational Sciences (NCATS), 2018)",
  "note": "The whole screen tested about 410,000 compounds, of which about 18,000 (4.4%) were called active. The shares of active, inactive and inconclusive entries below differ from those in the screen. Cut-off read from the data, not from the text of the source: active = activity change below about -60%; inconclusive = no clear call, values can overlap the other calls; inactive = above about -39%. % is set by controls: 0 for no effect and ±100 for the full control effect.",
  "data": [
    {"assay": "qHTS Assay for inhibitors of the human cytomegalovirus (HCMV)", "conditions": "HFF cells, HCMV-luciferase reporter, 72 h; at 57.5 µM; stronger effect = lower value", "in_short": "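Steps: HFFs plated, 16 h 37C; compounds added; HCMV-luciferase added to MOI 1 PFU/cell; 72 h 37C; OneGlo reagent, 5 min room temperature; luminescence read, normalized to controls.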", "values": [
      {"smiles": "O=C(c1ccc2nc(N3CCOCC3)sc2c1)N1CCN(c2ccc(Cl)cc2)CC1", "activity change, negative = inhibition": "inconclusive: -43.7%"},
      {"smiles": "Cc1cccc(NC(c2cccc(Cl)c2)c2ccc3cccnc3c2O)n1", "note": "(configuration not stated)", "activity change, negative = inhibition": "active: -97.8%"},
      {"smiles": "Nc1c2c(nc3ccc(Br)cc13)N(c1ccccc1)CC2", "activity change, negative = inhibition": "inactive: -9.42%"},
      {"smiles": "CCn1c(CSc2n[nH]c(N)n2)nc2cc(C(=O)O)ccc21", "activity change, negative = inhibition": "inactive: -22.7%"},
      {"smiles": "CCOc1ccc(-n2cc(-c3ccccc3)c3c(=O)[nH]cnc32)cc1", "activity change, negative = inhibition": "inconclusive: -42.8%"},
      {"smiles": "CCCc1nc2ccccc2c(C(=O)OCC(=O)NC2CC2)c1CC", "activity change, negative = inhibition": "inconclusive: -50.8%"},
      {"smiles": "O=Cc1ccc(-c2ccc(F)cc2)o1", "activity change, negative = inhibition": "inactive: -14.4%"},
      {"smiles": "O=Nc1ccc(O)c2ncccc12", "activity change, negative = inhibition": "active: -97.9%"},
      {"smiles": "CNc1cccc(-c2cc(OC)ccc2OC)n1", "activity change, negative = inhibition": "inconclusive: -40.9%"},
      {"smiles": "COc1ccccc1NC(=S)NC(=O)CCc1ccccc1", "activity change, negative = inhibition": "inactive: 6.89%"},
      {"smiles": "CC(C)c1ccc(/C=C2\\NC(=S)N(Cc3cccnc3)C2=O)cc1", "activity change, negative = inhibition": "inconclusive: -41.7%"},
      {"smiles": "O=C(Cc1ccccc1)NCc1cccnc1", "activity change, negative = inhibition": "inactive: -12.3%"},
      {"smiles": "CSC1=NC2(CCCCC2)C2=C(CCCC2)N1", "activity change, negative = inhibition": "inconclusive: -40.4%"},
      {"smiles": "CCC(C)C(NC(=O)c1ccccc1NC(=O)c1ccccc1)C(=O)N1CCOCC1", "note": "(configuration not stated)", "activity change, negative = inhibition": "inconclusive: -44.6%"},
      {"smiles": "O=C(Nc1ccccc1)NN(C(=O)CCl)c1ccccc1", "activity change, negative = inhibition": "active: -102%"},
      {"smiles": "C=CCn1cc(C(=O)NCc2cccnc2)c(=O)c2cc(S(=O)(=O)N(CC)CC)ccc21", "activity change, negative = inhibition": "active: -60.9%"},
      {"smiles": "NS(=O)(=O)c1ccc(CCNC(=O)COC(=O)c2nc(Cl)ccc2Cl)cc1", "activity change, negative = inhibition": "inconclusive: -40.3%"},
      {"smiles": "Cc1ccc(-n2ncc3c(N4CCN(c5ccc(F)cc5)CC4)ncnc32)c(C)c1", "activity change, negative = inhibition": "inconclusive: -56.3%"},
      {"smiles": "Cc1cccc(C)c1NC(=O)COC(=O)c1ccc2[nH]c3c(c2c1)CCCC3", "activity change, negative = inhibition": "inconclusive: -41.8%"},
      {"smiles": "C[C@H](NC(=O)c1[nH]cnc1C(=O)Nc1ccon1)c1ccccc1", "activity change, negative = inhibition": "inactive: 7.54%"},
      {"smiles": "CC(=O)N1CCc2c(sc(NC(=O)c3ccc([N+](=O)[O-])o3)c2C#N)C1", "activity change, negative = inhibition": "active: -98.4%"},
      {"smiles": "COC(=O)C1=C(C)N(C)C(=S)NC1c1ccc(Cl)cc1", "note": "(configuration not stated)", "activity change, negative = inhibition": "inconclusive: -51.9%"},
      {"smiles": "Cc1ccccc1OCCC(=O)OCC(=O)NC(C)c1ccccc1", "note": "(configuration not stated)", "activity change, negative = inhibition": "inactive: 145%"},
      {"smiles": "O=C(CCN1C(=O)C2C3C=CC(C3)C2C1=O)N1CCCCC1", "note": "(configuration not stated)", "activity change, negative = inhibition": "inconclusive: -45.4%"},
      {"smiles": "O=C(CC(=O)N/N=C\\c1ccc(F)cc1)NCCc1ccccc1", "activity change, negative = inhibition": "inconclusive: -47.2%"},
      {"smiles": "COc1cccc(-c2cn(-c3cccc(C(F)(F)F)c3)c(=S)[nH]2)c1", "activity change, negative = inhibition": "inconclusive: -48.5%"},
      {"smiles": "COc1ccc(NC(=O)Nc2cnccn2)cc1OC", "activity change, negative = inhibition": "inconclusive: -50.3%"},
      {"smiles": "COc1ccc(NC(=O)N2CCC3(CC2)OCCO3)cc1OC", "activity change, negative = inhibition": "inconclusive: -40%"},
      {"smiles": "COc1ccc(-c2cn3nc(N4CCCC(C(=O)Nc5ccccc5F)C4)sc3n2)cc1", "note": "(configuration not stated)", "activity change, negative = inhibition": "inconclusive: 0%"},
      {"smiles": "NC(=O)NNC1=Nc2cccc3cccc1c23", "activity change, negative = inhibition": "inconclusive: -47.4%"},
      {"smiles": "CCCCN(CCCNC(=O)c1cc(Nc2ccc(OC)cc2OC)nc2ccccc12)Cc1ccccc1", "activity change, negative = inhibition": "inconclusive: -54%"},
      {"smiles": "NC(=O)c1ccc(NC(=O)COC(=O)/C=C/c2ccc3c(c2)OCO3)cc1", "activity change, negative = inhibition": "inactive: -31.5%"},
      {"smiles": "COc1ccccc1-c1cc(C(=O)Nc2c(C)nn(Cc3ccc(Cl)cc3)c2C)no1", "activity change, negative = inhibition": "active: -73.8%"},
      {"smiles": "CCC[C@H](N[C@@H](C)C(=O)N1[C@H](C(=O)O)C[C@@H]2CCCC[C@@H]21)C(=O)OCC", "activity change, negative = inhibition": "inconclusive: -58.2%"},
      {"smiles": "COc1ccccc1C(=O)Nc1ccc(-c2nc3cc(C)cc(C)c3o2)cc1", "activity change, negative = inhibition": "inactive: -0.0404%"},
      {"smiles": "CCCN1CCN(CCCNC(=O)C(CC)n2nc(C)c3sc4ccccc4c3c2=O)CC1", "note": "(configuration not stated)", "activity change, negative = inhibition": "inconclusive: -42.7%"},
      {"smiles": "O=C(Nc1ccc(N2CCOCC2)cc1)C1CC(=O)N(c2ccccc2)C1", "note": "(configuration not stated)", "activity change, negative = inhibition": "inconclusive: -46%"},
      {"smiles": "COc1ccc(NC(=S)NC(C)Cc2cccs2)cc1", "note": "(configuration not stated)", "activity change, negative = inhibition": "inconclusive: -41%"},
      {"smiles": "CN1CCN(CCCNC(=O)c2ccc3c(Cl)c4c(nc3c2)CCCC4)CC1", "activity change, negative = inhibition": "inconclusive: 0%"},
      {"smiles": "CCN(CC)c1ccc([N+](=O)[O-])cc1C(=O)N1CCOCC1", "activity change, negative = inhibition": "inconclusive: -40.7%"},
      {"smiles": "Cc1ccc(C)c(N2CCN(S(=O)(=O)c3ccc4c(c3)CC(C)N4C(=O)C3CC3)CC2)c1", "note": "(configuration not stated)", "activity change, negative = inhibition": "inconclusive: -48.8%"},
      {"smiles": "COc1ccc(C(=O)c2cn(Cc3ccc(F)cc3)c3c(F)cc(F)cc3c2=O)cc1", "activity change, negative = inhibition": "inactive: -21.8%"},
      {"smiles": "C/C(CCc1oc2ccc(Br)cc2c1-c1ccc(C)o1)=N/O", "activity change, negative = inhibition": "inactive: -39.2%"},
      {"smiles": "CC(C)(O)C#Cc1ccc(C(=O)NCCc2ccc(S(N)(=O)=O)cc2)cc1", "activity change, negative = inhibition": "inconclusive: -40.7%"},
      {"smiles": "CCc1ccc(S(=O)(=O)Nc2c(C)nn(C)c2C)cc1", "activity change, negative = inhibition": "active: -69.1%"},
      {"smiles": "COC(=O)C1C(=O)c2c(C)noc2CC1(C)C", "note": "(configuration not stated)", "activity change, negative = inhibition": "inconclusive: -41%"},
      {"smiles": "CN(C)c1cccc(NC(=O)C2(C)Cc3c(-c4cccnc4)ccnc3O2)c1", "note": "(configuration not stated)", "activity change, negative = inhibition": "inconclusive: -40.1%"},
      {"smiles": "Cc1ccc(N(Cc2ccccc2)C(=O)c2cc(S(=O)(=O)N3CCOCC3)ccc2F)cc1", "activity change, negative = inhibition": "inconclusive: -48.7%"},
      {"smiles": "Cc1nc(Nc2ccc3c(c2)OCCO3)c2nnn(Cc3ccccc3Cl)c2n1", "activity change, negative = inhibition": "active: -91.8%"},
      {"smiles": "Cc1nn(C)c(C)c1CCC(=O)N1CCCC(Nc2ccc(C(C)C)cc2)C1", "note": "(configuration not stated)", "activity change, negative = inhibition": "inconclusive: -50.7%"},
      {"smiles": "COCCCNC(=S)N1CCN(c2nc(C)nc3sc4c(c23)CCCC4)CC1", "activity change, negative = inhibition": "inconclusive: -45.1%"},
      {"smiles": "CC(C)(C)c1ccc(C(=O)Nc2ccc3nc(SCC(=O)N4CCCC4)sc3c2)cc1", "activity change, negative = inhibition": "active: -96.7%"},
      {"smiles": "O=C(CSc1nc(-c2ccccc2)[nH]c1-c1ccc(F)cc1)NC1CCCC1", "activity change, negative = inhibition": "inactive: -18.3%"},
      {"smiles": "CCn1c2c(c(=N)c3ccccc31)CCC2", "activity change, negative = inhibition": "active: -77.1%"},
      {"smiles": "CCN(CC)c1ccc(NC(=O)c2[nH]c(C)c(C(C)=O)c2C)c(C)c1", "activity change, negative = inhibition": "inconclusive: -40.7%"},
      {"smiles": "CCNNC(=O)C(O)(c1cccc(C)c1)c1cccc(C)c1", "activity change, negative = inhibition": "inconclusive: -47.2%"},
      {"smiles": "COc1ccc(CCNC(=O)c2cc3cccc4c3n2CC(C)S4)c(OC)c1OC", "note": "(configuration not stated)", "activity change, negative = inhibition": "inactive: 0%"}
    ]}
  ]
}
